# This is one part of the list. Single values are uncertain, as repeats are few or missing.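 The apoptosis fraction was the count of cleaved-PARP antibody-stained nuclei relative to all DNA-stained nuclei, imaged in 1,536-well plates. Screening doses were set so most cells survived, and baseline and induced cleaved-PARP levels vary greatly across cell lines.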
# Experiments:
# Test in all cases: cleaved PARP positive nuclei fraction relative to DMSO control; melanoma cells; higher = more apoptosis
# Conditions in all cases: library dose: low library concentration; 72 h
# 501Mel = system: 501Mel
# A101D = system: A101D
# A2058 = system: A2058
# A375 = system: A375
# C32 = system: C32
# CBRC013 = system: CBRC013 (line from a melanoma biopsy)
# CBRC014 = system: CBRC014 (line from a melanoma biopsy)
# CBRC016 = system: CBRC016 (line from a melanoma biopsy)
# CBRC017 = system: CBRC017 (line from a melanoma biopsy)
# CBRC034 = system: CBRC034 (line from a melanoma biopsy)
# COLO792 = system: COLO792
# COLO800 = system: COLO800
# COLO829 = system: COLO829
# G361 = system: G361
# IPC-298 = system: IPC-298
# IST-MEL1 = system: IST-MEL1
# LB2518-MEL = system: LB2518-MEL
# LOXIMVI = system: LOXIMVI
SMILES,cleaved PARP positive nuclei fraction (501Mel),cleaved PARP positive nuclei fraction (A101D),cleaved PARP positive nuclei fraction (A2058),cleaved PARP positive nuclei fraction (A375),cleaved PARP positive nuclei fraction (C32),cleaved PARP positive nuclei fraction (CBRC013),cleaved PARP positive nuclei fraction (CBRC014),cleaved PARP positive nuclei fraction (CBRC016),cleaved PARP positive nuclei fraction (CBRC017),cleaved PARP positive nuclei fraction (CBRC034),cleaved PARP positive nuclei fraction (COLO792),cleaved PARP positive nuclei fraction (COLO800),cleaved PARP positive nuclei fraction (COLO829),cleaved PARP positive nuclei fraction (G361),cleaved PARP positive nuclei fraction (IPC-298),cleaved PARP positive nuclei fraction (IST-MEL1),cleaved PARP positive nuclei fraction (LB2518-MEL),cleaved PARP positive nuclei fraction (LOXIMVI)
"CN(NC(=O)CC(=O)NN(C)C(=S)c1ccccc1)C(=S)c1ccccc1 + Oc1cc(-c2nc(-c3ccccc3)[nH]c2-c2ccncc2)ccc1Cl [L779450] (first compound 0.006 µM, partner dose 0.2 µM)",60.5%,350%,76.2%,1500%,165%,145%,549%,255%,114%,164%,162%,49.9%,153%,114%,195%,49.2%,215%,65.4%
"CCN(CC)CCCCNc1ncc2cc(-c3cc(OC)cc(OC)c3)c(NC(=O)NC(C)(C)C)nc2n1 + CCCCCCCCCCCC1=C(O)C(=O)C=C(O)C1=O [Embelin] (first compound 0.1 µM, partner dose 1.2 µM)",68.8%,31.6%,86.3%,63.3%,67.2%,352%,79.5%,36.1%,85.5%,381%,88.2%,165%,84.4%,92.5%,112%,88.5%,92%,28.1%
"NCC(=O)Nc1ccc(-n2nc(C(F)(F)F)cc2-c2ccc3c(ccc4ccccc43)c2)cc1 + Oc1nc(-c2ccc(C(F)(F)F)cc2)nc2c1CSCC2 [XAV939] (first compound 1 µM, partner dose 2 µM)",543%,79%,183%,8440%,72.2%,246%,95.2%,25%,82.5%,89.8%,74.5%,67.5%,63.4%,40%,132%,118%,165%,30.5%
"O=C1NC(=O)/C(=C/c2ccc(-c3ccc(F)cc3O)o2)S1 + O=c1cc(-c2cccc3c2Sc2ccccc2S3)oc(N2CCOCC2)c1 [KU55933] (first compound 1 µM, partner dose 1 µM)",81.3%,86%,212%,82.3%,83.8%,36.2%,91.4%,39.5%,84.4%,262%,126%,128%,101%,144%,64.6%,80.2%,79.7%,61.2%
"COC(=O)c1sccc1S(=O)(=O)Nc1ccc(Nc2ccccc2)cc1OC + O=S(=O)(c1ccccc1)N(CC(F)(F)F)c1ccc(C(O)(C(F)(F)F)C(F)(F)F)cc1 [T0901317] (first compound 1 µM, partner dose 1.4 µM)",94.5%,59.5%,134%,139%,91.2%,77.3%,87.1%,83.7%,86.4%,93.4%,147%,19.1%,69%,25.9%,119%,83.8%,84.5%,143%
"O=C(Nc1ccccc1)c1cc([N+](=O)[O-])ccc1Cl + O=C1NC(=O)/C(=C/c2ccc(-c3ccc(F)cc3O)o2)S1 [AS252424] (first compound 2 µM, partner dose 1 µM)",85.3%,150%,141%,122%,43.1%,135%,82.7%,58.3%,78.2%,82.6%,97.2%,129%,82.3%,136%,37.8%,179%,96.5%,25.4%
"NCC(=O)Nc1ccc(-n2nc(C(F)(F)F)cc2-c2ccc3c(ccc4ccccc43)c2)cc1 + O=c1cc(-c2cccc3c2Sc2ccccc2S3)oc(N2CCOCC2)c1 [KU55933] (first compound 1 µM, partner dose 1 µM)",579%,90.6%,104%,1270%,34.4%,158%,106%,114%,61.7%,49.9%,91.7%,43.6%,117%,129%,154%,101%,76.3%,48.3%
"O=C1NC(=O)/C(=C/c2ccc(-c3ccc(F)cc3O)o2)S1 + Cn1cc(/C=C2\C(=O)Nc3cccnc32)c2ccccc21 [GW441756] (first compound 1 µM, partner dose 0.4 µM)",36.4%,234%,75.5%,124%,122%,391%,304%,99%,87.6%,41.6%,120%,73%,52.4%,92.8%,57.9%,30.9%,88.7%,82.8%
"CN(C)S(=O)(=O)c1ccc2c(c1)/C(=C/c1cc3c([nH]1)CCCC3)C(=O)N2 + O=C(O)C(=O)Nc1sc2c(c1C(=O)O)CCNC2 [TCS401] (first compound 0.4 µM, partner dose 1.66667 µM)",98.5%,125%,64.7%,47.2%,208%,212%,90.5%,57.3%,71.8%,39.1%,118%,113%,65.4%,98.5%,113%,231%,113%,44.7%
"COc1cc(N2CCC(N3CCN(C)CC3)CC2)ccc1Nc1ncc(Cl)c(Nc2ccccc2S(=O)(=O)C(C)C)n1 + CCCCCCCCCCCC1=C(O)C(=O)C=C(O)C1=O [Embelin] (first compound 0.08 µM, partner dose 1.2 µM)",181%,69%,130%,82.9%,76.3%,178%,92.2%,36%,158%,186%,241%,20.6%,77.7%,72.9%,153%,132%,76.5%,27.1%
